Source: PubChem BioAssay AID1671195 (Yale University, 2021)
This is an unselected part of about 22,000 reagents tested. In the full data, about 1,510 (6.9%) are marked active. 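Active includes knockdowns raising or lowering LDL uptake; positive z-scores mean more uptake, negative mean less.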 Reagents against one gene are numbered here.

Assay: 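Genes whose knockdown alters LDL uptake in liver cancer cells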 (primary screen)
Cell system: human Huh7 hepatoma cells
Reagents: siRNA pool against human genes, 18 nM
Time to read-out: about 2 to 2.5 days of knockdown, then 8 h LDL uptake
Treatment: DiI-labelled LDL at 30 µg/ml for 8 h, in lipoprotein-deficient serum medium
Read-out: 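Fluorescent LDL signal imaged in cells, scaled to the plate median, robust z-score for each replicate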
Reading the numbers: robust z-score: higher = more LDL uptake after knockdown
Call rule: 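a gene counts as active if at least two replicate z-scores exceed ±2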

no.	gene	pool no.	robust z-score, replicate 1	robust z-score, replicate 2	robust z-score, replicate 3	Call
1	GLB1L2 (galactosidase beta 1 like 2)	1	1.66	1.28	1.15	inactive
2	TRIM45 (tripartite motif containing 45)	1	-0.197	-1.36	-0.305	inactive
3	SULT1C2 (sulfotransferase family 1C member 2)	1	0.793	0.722	1.1	inactive
4	LOC400010 (retired record)	1	0.615	0.158	-0.0864	inactive
5	ARHGEF4 (Rho guanine nucleotide exchange factor 4)	1	0.584	0.572	0.752	inactive
6	GPR82 (G protein-coupled receptor 82)	1	0.495	-1	-0.0115	inactive
7	INPP1 (inositol polyphosphate-1-phosphatase)	1	0.903	0.27	0.974	inactive
8	IFRD1 (interferon related developmental regulator 1)	1	-0.409	-0.842	-0.624	inactive
9	DUSP4 (dual specificity phosphatase 4)	1	-0.408	-0.619	0.296	inactive
10	RNF145 (ring finger protein 145)	1	-1.23	-0.956	-1.31	inactive
11	TMEM117 (transmembrane protein 117)	1	-0.777	-0.819	-1.21	inactive
12	SLC9B1	1	-0.407	-0.892	-1.25	inactive
13	FIGLA (folliculogenesis specific bHLH transcription factor)	1	0.22	0.0362	0.0226	inactive
14	LANCL1 (LanC like glutathione S-transferase 1)	1	0.469	0.198	1.16	inactive
15	TAOK1 (TAO kinase 1)	1	0.0852	0.0691	-0.00994	inactive
16	SNAP23 (synaptosome associated protein 23)	1	-0.679	-0.955	-1.09	inactive
17	BCL2L12 (BCL2 like 12)	1	-0.492	-0.248	0.248	inactive
18	ATG3 (autophagy related 3)	1	0.734	0.457	0.99	inactive
19	RPSAP27 (ribosomal protein SA pseudogene 27)	1	0.712	1.06	-0.342	inactive
20	TRIM11 (tripartite motif containing 11)	1	-0.833	-0.565	-0.0461	inactive
21	ADGRD2 (adhesion G protein-coupled receptor D2)	1	-1.2	-0.897	-0.978	inactive
22	SEPHS1P7 (selenophosphate synthetase 1 pseudogene 7)	1	-0.347	-1.49	-1.56	inactive
23	SLC36A1	1	-1.77	-2.04	-1.63	inactive
24	LINC00305 (long independently transcribed non-coding RNA 305)	1	-0.257	-0.65	-0.457	inactive
25	SPCS2 (signal peptidase complex subunit 2)	1	-1.46	-1.6	0.099	inactive
26	UBE2D4 (ubiquitin conjugating enzyme E2 D4)	1	0.715	-0.495	-1.1	inactive
27	TRAK1 (trafficking kinesin protein 1)	1	-0.977	-1.11	-1.01	inactive
28	PCID2 (PCI domain containing 2)	1	-0.135	-1.72	-0.447	inactive
29	CLVS1 (clavesin 1)	1	-0.725	0.731	-0.667	inactive
30	TRPS1 (transcriptional repressor GATA binding 1)	1	-0.349	0.222	-0.62	inactive
31	IGDCC4 (immunoglobulin superfamily DCC subclass member 4)	1	-0.29	-0.261	0.0173	inactive
32	CCDC149 (coiled-coil domain containing 149)	1	0.0773	0.184	0.276	inactive
33	ZFY (zinc finger protein Y-linked)	1	-0.739	-0.671	-0.684	inactive
34	GLRA1 (glycine receptor alpha 1)	1	0.432	1.26	0.626	inactive
35	CCDC162P (coiled-coil domain containing 162, pseudogene)	1	2.97	2.18	3.3	active
36	CCDC162P (coiled-coil domain containing 162, pseudogene)	2	0.607	1.37	0.885	inactive
37	CCDC162P (coiled-coil domain containing 162, pseudogene)	3	1.63	0.401	0.789	inactive
38	CCDC162P (coiled-coil domain containing 162, pseudogene)	4	-0.757	-1.19	-1.04	inactive
39	LOC338750 (retired record)	1	-0.218	-0.385	-0.0094	inactive
40	RNPEPL1 (arginyl aminopeptidase like 1)	1	-1.88	-1.82	-1.97	inactive

Active calls, of those listed so far:
gene	pool no.	robust z-score, replicate 1	robust z-score, replicate 2	robust z-score, replicate 3	Call
CCDC162P (coiled-coil domain containing 162, pseudogene)	1	2.97	2.18	3.3	active

The results go on.
no.	gene	pool no.	robust z-score, replicate 1	robust z-score, replicate 2	robust z-score, replicate 3	Call
41	CFAP54 (cilia and flagella associated protein 54)	1	-0.503	0.265	-0.173	inactive
42	CFAP54 (cilia and flagella associated protein 54)	2	-0.368	-0.281	-0.0569	inactive
43	DAPL1 (death associated protein like 1)	1	1.44	0.408	1.08	inactive
44	LOC440399 (retired record)	1	-0.485	-0.844	-0.566	inactive
45	ERO1A (endoplasmic reticulum oxidoreductase 1 alpha)	1	0.0511	-0.796	-0.284	inactive
46	BPIFA3 (BPI fold containing family A member 3)	1	0.69	0.231	1.07	inactive
47	RYR2 (ryanodine receptor 2)	1	-0.425	-0.823	-0.704	inactive
48	SDC1 (syndecan 1)	1	-0.701	-1.9	-1.62	inactive
49	GABBR2 (gamma-aminobutyric acid type B receptor subunit 2)	1	-1.02	-1.81	-1.6	inactive
50	ZNF101 (zinc finger protein 101)	1	-0.825	-1.15	-1.21	inactive
51	PGM5 (phosphoglucomutase 5)	1	0.598	-0.201	0.762	inactive
52	HYLS1 (HYLS1 centriolar and ciliogenesis associated)	1	-1.45	-1.56	-1.63	inactive
53	LINC01697 (long independently transcribed non-coding RNA 1697)	1	0.573	0.304	0.384	inactive
54	IQCK (IQ motif containing K)	1	1.23	0.0288	0.262	inactive
55	ZBTB46 (zinc finger and BTB domain containing 46)	1	2.82	2.42	2.94	active
56	PFDN4 (prefoldin subunit 4)	1	-1.03	-0.0989	-0.841	inactive
57	KIFC1 (kinesin family member C1)	1	0.719	-0.107	0.358	inactive
58	LOC389183 (retired record)	1	4.1	2.76	2.36	active
59	KMT5C (lysine methyltransferase 5C)	1	0.48	0.973	0.163	inactive
60	CLPSL2 (colipase like 2)	1	-0.543	-0.408	-0.0147	inactive
61	HS3ST4 (heparan sulfate-glucosamine 3-sulfotransferase 4)	1	4.5	3.3	4.67	active
62	LOC387791 (retired record)	1	4.07	5.33	4.08	active
63	TMSB10 (thymosin beta 10)	1	0.996	0.198	1.79	inactive
64	MACC1 (MET transcriptional regulator MACC1)	1	0.719	0.979	0.841	inactive
65	VPS16 (VPS16 core subunit of CORVET and HOPS complexes)	1	-0.767	0.732	-0.865	inactive
66	CD81 (CD81 molecule)	1	-0.0757	0.493	0.686	inactive
67	CSPG4 (chondroitin sulfate proteoglycan 4)	1	1.53	1.64	1.32	inactive
68	PUS1 (pseudouridine synthase 1)	1	0.383	0.365	-0.0331	inactive
